The values below come from paper PMC5996148.

Holding throughout (test): protein microarray (ProtoArray v5.0), streptavidin-Alexa Fluor 647
Conditions in all cases: 3'-biotin; 20 mM Tris (pH 7.5), 5 mM MgCl2, 100 mM KCl, 0.1% Tween-20, A/T-rich and random oligonucleotide blockers; temperature not stated; high values mean tight binding

In assay [1] the test system is TRIM11 (human).
In assay [2] the test system is TRIM32 (human).
Assay [3] has as its system TRIM44 (human).
Assay [4] relates to TRIM63 (human).
For assay [5], the target named is T1, TRIM69 (UniProt Q86WT6).
T1 sequence: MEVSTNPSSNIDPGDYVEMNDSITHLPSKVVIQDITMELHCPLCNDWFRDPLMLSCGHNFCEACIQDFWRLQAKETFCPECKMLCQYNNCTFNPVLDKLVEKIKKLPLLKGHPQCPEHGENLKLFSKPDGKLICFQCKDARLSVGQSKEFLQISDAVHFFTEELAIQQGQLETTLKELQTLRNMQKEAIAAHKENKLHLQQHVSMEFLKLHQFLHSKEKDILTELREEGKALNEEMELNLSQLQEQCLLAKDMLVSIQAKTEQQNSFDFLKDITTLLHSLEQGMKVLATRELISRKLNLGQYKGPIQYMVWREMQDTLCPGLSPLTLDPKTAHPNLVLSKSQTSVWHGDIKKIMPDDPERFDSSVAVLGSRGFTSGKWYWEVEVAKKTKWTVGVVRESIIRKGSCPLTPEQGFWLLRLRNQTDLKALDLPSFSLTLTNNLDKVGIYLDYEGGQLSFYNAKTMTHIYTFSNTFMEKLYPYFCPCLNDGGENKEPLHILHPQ

Assay [6] has as its target T2, TSC22D1 (UniProt Q15714).
T2 sequence: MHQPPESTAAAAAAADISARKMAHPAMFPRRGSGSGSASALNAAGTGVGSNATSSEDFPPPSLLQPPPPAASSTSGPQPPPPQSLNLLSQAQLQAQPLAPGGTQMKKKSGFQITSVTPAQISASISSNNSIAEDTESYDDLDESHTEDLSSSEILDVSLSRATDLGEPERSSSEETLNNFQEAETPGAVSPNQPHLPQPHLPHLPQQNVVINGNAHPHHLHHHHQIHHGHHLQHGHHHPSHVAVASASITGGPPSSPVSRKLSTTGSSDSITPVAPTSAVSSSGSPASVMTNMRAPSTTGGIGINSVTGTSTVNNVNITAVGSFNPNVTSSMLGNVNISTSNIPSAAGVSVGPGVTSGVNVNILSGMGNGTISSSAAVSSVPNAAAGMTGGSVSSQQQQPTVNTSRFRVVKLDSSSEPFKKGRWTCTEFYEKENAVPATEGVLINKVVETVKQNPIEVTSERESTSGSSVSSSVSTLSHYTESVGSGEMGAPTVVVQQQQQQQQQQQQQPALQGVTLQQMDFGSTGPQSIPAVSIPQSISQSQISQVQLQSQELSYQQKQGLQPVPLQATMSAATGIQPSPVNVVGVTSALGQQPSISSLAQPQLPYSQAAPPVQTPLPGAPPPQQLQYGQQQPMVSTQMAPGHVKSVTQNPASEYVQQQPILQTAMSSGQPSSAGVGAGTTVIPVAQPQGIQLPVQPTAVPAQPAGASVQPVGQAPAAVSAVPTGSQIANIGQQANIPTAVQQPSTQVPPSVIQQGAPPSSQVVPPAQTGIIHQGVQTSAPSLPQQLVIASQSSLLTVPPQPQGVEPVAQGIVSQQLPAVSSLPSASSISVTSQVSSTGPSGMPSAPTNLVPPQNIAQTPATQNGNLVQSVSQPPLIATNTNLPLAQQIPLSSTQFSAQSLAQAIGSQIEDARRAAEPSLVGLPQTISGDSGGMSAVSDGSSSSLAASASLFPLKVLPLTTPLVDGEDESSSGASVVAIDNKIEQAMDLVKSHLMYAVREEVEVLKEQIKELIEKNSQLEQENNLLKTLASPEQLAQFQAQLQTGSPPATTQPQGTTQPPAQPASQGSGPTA

For assay [7], the system named is TSNAXIP1 (human).
In assay [8] the test system is TSPAN12 (human).
Assay [9] relates to TSPAN17 (human).
Assay [10] has as its target T3, TSPAN5 (UniProt P62079).
T3 sequence: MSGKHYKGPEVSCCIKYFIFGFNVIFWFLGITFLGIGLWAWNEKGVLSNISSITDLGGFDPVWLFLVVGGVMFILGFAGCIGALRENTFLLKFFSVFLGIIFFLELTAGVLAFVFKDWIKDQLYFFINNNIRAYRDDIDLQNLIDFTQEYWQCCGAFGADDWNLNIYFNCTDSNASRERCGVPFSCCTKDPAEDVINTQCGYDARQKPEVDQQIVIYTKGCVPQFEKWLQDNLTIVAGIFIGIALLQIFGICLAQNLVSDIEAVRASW

In assay [11] the test system is TSR2 (human).
Assay [12] relates to TTC1 (human).
Assay [13] relates to TTC32 (human).
Assay [14] relates to TTC8 (human).
Assay [15] addresses T4, TTLL7 (UniProt Q6ZT98).
T4 sequence: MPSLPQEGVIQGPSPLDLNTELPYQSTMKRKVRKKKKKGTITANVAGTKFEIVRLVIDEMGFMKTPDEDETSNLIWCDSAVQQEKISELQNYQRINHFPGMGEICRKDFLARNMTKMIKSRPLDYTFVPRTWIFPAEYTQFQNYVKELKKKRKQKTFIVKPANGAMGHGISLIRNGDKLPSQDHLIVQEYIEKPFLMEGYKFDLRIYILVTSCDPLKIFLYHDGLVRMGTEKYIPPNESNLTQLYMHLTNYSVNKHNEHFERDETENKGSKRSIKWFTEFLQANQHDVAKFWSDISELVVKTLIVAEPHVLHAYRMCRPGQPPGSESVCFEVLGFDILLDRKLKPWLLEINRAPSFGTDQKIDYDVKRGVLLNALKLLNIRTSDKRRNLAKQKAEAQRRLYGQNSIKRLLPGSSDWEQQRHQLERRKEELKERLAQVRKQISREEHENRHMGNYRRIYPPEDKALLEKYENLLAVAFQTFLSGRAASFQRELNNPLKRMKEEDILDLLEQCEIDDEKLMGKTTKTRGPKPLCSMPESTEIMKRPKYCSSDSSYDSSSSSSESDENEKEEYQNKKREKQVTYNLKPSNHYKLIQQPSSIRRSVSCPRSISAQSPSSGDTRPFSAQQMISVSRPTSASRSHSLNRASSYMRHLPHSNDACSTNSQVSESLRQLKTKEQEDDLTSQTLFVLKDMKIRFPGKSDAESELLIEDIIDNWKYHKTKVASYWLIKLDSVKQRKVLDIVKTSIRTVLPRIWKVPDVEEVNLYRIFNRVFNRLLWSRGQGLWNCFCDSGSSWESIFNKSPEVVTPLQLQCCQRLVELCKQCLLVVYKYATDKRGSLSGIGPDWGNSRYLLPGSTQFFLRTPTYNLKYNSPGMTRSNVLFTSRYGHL

Assay [16] concerns TTR (human).
Assay [17] has as its system TTYH2 (human).
Assay [18] concerns TUBA3E (human).
In assay [19] the test system is TUBB (human).
In assay [20] the test system is TXN2 (human).

The other results are listed elsewhere or left out. For some assays here: The source does not settle which construct or isoform was used.

As for “GGTGACAGGGGTATGGGGAGGGG [G4-2 biotinylated (Ct1)]”, the binding signal was -0.394 z-score in assay [1]; -0.37 z-score in [2]; -0.395 z-score in assay [3]; -0.401 z-score in assay [4]; -0.372 z-score in [5]; -0.373 z-score in assay [6]. For the same sequence, the binding signal in assay [7] is -0.396 z-score; in [8] it was -0.378 z-score; in [9], -0.373 z-score; in assay [10], -0.373 z-score; in [11] it was -0.395 z-score; in assay [12], -0.378 z-score. In addition, the binding signal in assay [13] was -0.37 z-score; in assay [14], -0.391 z-score; in assay [15], 4.63 z-score; in assay [16], -0.36 z-score; in [17] it was -0.387 z-score; in [18], -0.391 z-score. For the same sequence, the binding signal in assay [19] is -0.376 z-score; in assay [20], -0.372 z-score.
